# Laboratory results taken from PubChem BioAssay AID504467 (National Center for Advancing Translational Sciences (NCATS), 2011).
# Hit rate of the full screen: of about 330,000 compounds, about 7,700 (2.3%) were called active. Inconclusive results, whose numbers are uncertain, are shown with a selection of clear calls. The call rests on the fitted dose curve; in most records, active means well fitted inhibition curve with a large enough effect; inconclusive means small, poorly fitted or top-dose-only effect, or effect the other way; inactive means flat fitted curve, though single readings scatter. Potencies of inconclusive entries are doubtful fits and often do not repeat.
# Experiment: qHTS screen for small molecules that inhibit ELG1-dependent DNA repair in human embryonic kidney (HEK293T) cells expressing luciferase-tagged ELG1; further: nearly all actives have a fitted effect of over 55% in size
# Conditions: HEK293T ELG1-luciferase reporter, luminescence, 16 h, DNA damage induced by 5-fluorouridine; activity change, negative = inhibition: at 46.1 µM (top of the series)
# Method in brief: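 Reporter activity after DNA damage by 5-fluorouridine is monitored. Compound-treated cells incubate 16 hr at 37 °C, then ONE-Glo is added for 30 min before luminescence reading.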
# On the % scale 0 is the no-effect control and ±100 the full control effect; potency means the concentration at half of the fitted maximal effect.
SMILES,Potency,"activity change, negative = inhibition"
CCS(=O)(=O)c1ccc(NC(=O)c2ccccc2Cl)c(O)c1,"inconclusive: 0.164 µM [inhibitor, single point]",
CC[C@@H](C)[C@H](CNC)NC[C@@H](Cc1cccc2ccccc12)NCCc1cccc(C(F)(F)F)c1,"inconclusive: 29.1 µM [inhibitor, single point]",
O=C(Nc1ccc2c(c1)CCC2)c1ccc(Cl)nc1,"inconclusive: 7.3 µM [activator, partial curve]",
N#C/C(=C\Nc1ccccn1)S(=O)(=O)c1ccc(Cl)cc1,,inactive: -0.0352%
CCn1c(SCc2cccc(C(F)(F)F)c2)nnc1-c1ccco1,,inactive: 2.47%
CC(Nc1cc(N2CCN(C(=O)C(C)(C)C)CC2)ccc1[N+](=O)[O-])c1ccccc1 (configuration not stated),"inconclusive: 23.1 µM [inhibitor, single point]",
CCc1ccc(NC(=O)CN2CCc3ccccc3C2)cc1,"inconclusive: 18.4 µM [activator, single point]",
O=C(/C=C/c1ccccc1)NCc1ccco1,"inconclusive: 29.1 µM [activator, single point]",
C/C(N)=C(/C#N)C(=O)CSc1nnc(NC(C)C)s1,"inconclusive: 11.2 µM [activator, partial curve, poor fit]",
Cc1ccccc1OCCCCn1c(CO)nc2ccccc21,"inconclusive: 18.3 µM [inhibitor, single point]",
CN(Cc1ccccc1)C(=O)CC(=O)N(C)Cc1ccccc1,"inconclusive: 29.1 µM [activator, single point]",
Cc1oc2cc(OCc3cnn(-c4ccccc4)c3)ccc2c(=O)c1Oc1ccccc1F,,inactive: 4.25%
Cc1cccc(NC(=O)CN2CCN(CC(=O)NCC3(N4CCCCC4)CCCCC3)CC2)c1C,"inconclusive: 11.6 µM [activator, partial curve, poor fit]",
CC(=O)Nc1ccc(C2=NN(c3ccccc3)C(c3ccccc3)C2)cc1 (configuration not stated),"inconclusive: 29.1 µM [inhibitor, single point]",
O=C1CCN(Cc2ccc([N+](=O)[O-])cc2)CCN1[C@H](CO)c1ccccc1,,inactive: -3.03%
CC1=C(C(=O)Nc2cc(C)ccc2C)C(c2cccs2)NC(=S)N1 (configuration not stated),,inactive: -7.54%
Cc1cnc(C(=O)N2CCCC(N3CCN(c4ccccc4C)CC3)C2)cn1 (configuration not stated),,inactive: 3.08%
Cc1ccccc1OCCCn1c(=O)sc2ccccc21,"inconclusive: 11.2 µM [activator, partial curve]",
CC(=O)N1CCN(c2ccc(S(=O)(=O)N3CCOCC3)cc2[N+](=O)[O-])CC1,"inconclusive: 6.51 µM [inhibitor, partial curve, poor fit]",
CCCCNC(=S)NNC(=O)c1cccnc1,,inactive: 12.3%
CCc1ccc(Nc2nnc(SCC(=O)Nc3cccc(S(=O)(=O)NC4=NCCCCC4)c3)s2)cc1,"inconclusive: 25.9 µM [inhibitor, single point]",
Cc1ccccc1NC(=O)Cc1nc(COC(=O)c2ccc(Cl)c(S(N)(=O)=O)c2)cs1,active: 5.17 µM,
COc1ccc(S(=O)(=O)N2CCC(NC(=O)c3cccnc3)CC2)cc1,,inactive: 7.8%
c1ccc2c(CCNc3ncnc4nc[nH]c34)cccc2c1,active: 23.1 µM,

SMILES,Potency,"activity change, negative = inhibition"
CC(C)C(=O)N1CCN(c2ccc(NC(=O)c3ccc([N+](=O)[O-])o3)cc2)CC1,"inconclusive: 29.1 µM [inhibitor, single point]",
CCCCCCCCO,,inactive: 8.29%
Nc1c(/C=C2\C=Nc3ccccc32)c(=O)nc2sc(CC(=O)N3CCOCC3)nn12,,inactive: 14.2%
Cc1ccc(/C=N/NC(=O)c2nnn(-c3nonc3N)c2CSc2ccccc2)cc1,,inactive: -4.36%
CC(C)COc1ccc(Cc2cnc(N)nc2N)cc1,,inactive: -0.169%
Cc1ccc(-n2nnnc2-c2cnn(-c3ccc(F)cc3)c2C(F)(F)F)cc1,"inconclusive: 8.2 µM [inhibitor, partial curve, poor fit]",
OCCNCCCOc1cc(Cl)ccc1Cl,"inconclusive: 10.3 µM [activator, partial curve]",
COc1cccc(NS(=O)(=O)c2c(C)cc(C)cc2C)c1,,inactive: -8.05%
C(=C\c1ccccc1)/CSc1nnc(-c2ccncc2)n1Cc1ccco1,"inconclusive: 14.6 µM [inhibitor, partial curve, poor fit]",
CCCOc1ccc(C(=O)Nc2ccc(S(=O)(=O)Nc3cc(C)nc(C)n3)cc2)cc1,,inactive: -6.23%
O=[N+]([O-])c1ccc(Cl)c(CN2CCSCC2)c1,"inconclusive: 23.1 µM [activator, single point]",
COc1ccc(-n2cc(C#N)c(=O)n(Cc3ccc(F)cc3)c2=O)cc1,"inconclusive: 29.1 µM [inhibitor, single point]",
CCNc1nc(Cl)nc(NC2CCCCC2)n1,"inconclusive: 29.1 µM [activator, single point]",
CN(C)S(=O)(=O)c1ccc(N2CCCC2)c(C(=O)NNC(=O)c2ccccc2)c1,,inactive: -19.2%
Cc1ccc(-n2c(SCC(=O)c3c(N)n(C4CC4)c(=O)[nH]c3=O)nnc2N2CCOCC2)cc1,,inactive: 11%
CN(c1ccccc1C(=O)Nc1ccc(S(=O)(=O)N2CCCC2)cc1)S(C)(=O)=O,,inactive: -11.8%
Nc1ccc(N=Nc2ccccc2)c(N)n1,"inconclusive: 20.6 µM [activator, partial curve]",
Cc1ccc([N+](=O)[O-])cc1S(=O)(=O)Nc1cccc(-c2ccc(N3CCCC3)nn2)c1,"inconclusive: 4.11 µM [activator, single point]",
COc1ccc(C(=O)Nc2cccc(S(=O)(=O)N3CCCC3)c2)cc1S(=O)(=O)N1CCOCC1,"inconclusive: 25.9 µM [inhibitor, single point]",
O=C(Nc1ccc(S(=O)(=O)N2CCOCC2)cc1)c1ccc([N+](=O)[O-])o1,"inconclusive: 13 µM [inhibitor, partial curve]",
C=CCn1c(COc2ccccc2F)nnc1SCCN1C(=O)c2ccccc2C1=O,,inactive: -28.2%
CCCCN(C)C(=O)C1CCN(Cc2cccnc2)CC1,,inactive: 0.752%
O=C(CSc1ccc(-c2cccs2)nn1)N1CCCCC1,"inconclusive: 16.4 µM [activator, partial curve]",
Cc1ccsc1/C=N/NC(=O)C(O)c1ccccc1 (configuration not stated),,inactive: 21%

# Shown with tabs: entries from further up.
SMILES	Potency	activity change, negative = inhibition
CC(C)C(=O)N1CCN(c2ccc(NC(=O)c3ccc([N+](=O)[O-])o3)cc2)CC1	inconclusive: 29.1 µM [inhibitor, single point]	
Cc1ccc(/C=N/NC(=O)c2nnn(-c3nonc3N)c2CSc2ccccc2)cc1		inactive: -4.36%
C(=C\c1ccccc1)/CSc1nnc(-c2ccncc2)n1Cc1ccco1	inconclusive: 14.6 µM [inhibitor, partial curve, poor fit]	
O=[N+]([O-])c1ccc(Cl)c(CN2CCSCC2)c1	inconclusive: 23.1 µM [activator, single point]	

# (more compounds)

SMILES,Potency,"activity change, negative = inhibition"
Cc1ccc(C(NC(=O)C(C)C)c2cc([N+](=O)[O-])c3cccnc3c2O)cc1 (configuration not stated),"inconclusive: 23.1 µM [inhibitor, partial curve, poor fit]",
CSc1sc(C(=O)N2CCCCC2)c(-c2cccs2)c1C#N,"inconclusive: 5.17 µM [inhibitor, partial curve]",
COc1ccc(NC(=O)c2ccc3nccnc3c2)cc1,"inconclusive: 3.26 µM [activator, full curve]",
CCC(NC(=O)c1ccccc1NC(=O)c1ccc(C)cc1)C(=O)O (configuration not stated),"inconclusive: 18.4 µM [activator, single point]",
Cc1c(Cl)cccc1NC(=S)N(Cc1cccnc1)Cc1ccccc1Cl,,inactive: -17.6%
O=S(=O)(Nc1nc2ccccc2nc1OCC(F)(F)F)c1cccs1,"inconclusive: 16.4 µM [inhibitor, single point]",
Cc1ccc(C)c(NC(=O)CCN2C(=O)C3CC=CCC3C2=O)c1 (configuration not stated),,inactive: 4.43%
CCOc1cc(/C=N/OC(C)=O)ccc1OCc1ccccc1,"inconclusive: 20.6 µM [activator, partial curve, poor fit]",
COC(=O)c1ccc(COC(=O)C23CC4CC(CC(O)(C4)C2)C3)o1,"inconclusive: 35.5 µM [activator, partial curve, poor fit]",
CCn1cc(C(=O)N2CCc3ccccc32)c(=O)c2cc(S(=O)(=O)N(C)C3CCCCC3)ccc21,"inconclusive: 16.4 µM [inhibitor, partial curve]",
COc1nc(-c2ccccc2)nnc1-c1ccccc1,"inconclusive: 8.2 µM [activator, partial curve]",
CCN1CCN(S(=O)(=O)c2c(C)cc(C)cc2C)CC1,,inactive: -7.43%
Cc1snc(SCC(=O)N/N=C(\N)COc2ccc(F)cc2)c1C#N,,inactive: 19.1%
O=C(O)c1ccc(N2C(=O)CC(N3CCN(c4ccc(Cl)cc4)CC3)C2=O)cc1 (configuration not stated),"inconclusive: 0.231 µM [activator, single point]",
COc1ccc(N=c2oc3cc(O)ccc3cc2C(=O)NCC2CCCO2)c(OC)c1 (configuration not stated),"inconclusive: 0.82 µM [inhibitor, full curve, poor fit]",
O=C(O)c1ccccc1C(=O)NCCCn1ccnc1,,inactive: 5.73%
CN(CC(=O)Nc1ccccc1Br)C(=O)CN1CCN(Cc2cccc(Cl)c2)CC1,active: 18.3 µM,
O=C(CCCCCNC(=O)c1ccccc1Br)N=Nc1c(O)[nH]c2ccccc12,active: 9.2 µM,
O=C(NC1CCCCC1)N1CCN(c2ccc(Cl)cc2)CC1,"inconclusive: 9.2 µM [inhibitor, partial curve, poor fit]",
CSc1cccc(N2CC(C(=O)NCCC3=CCCCC3)CC2=O)c1 (configuration not stated),,inactive: 11.4%
Cc1ccc(NC(=O)c2cc(-c3cc(Cl)ccc3O)n[nH]2)cc1C,"inconclusive: 16.4 µM [activator, partial curve, poor fit]",
Cc1ccc(C)c(S(=O)(=O)N2CCCC2CNC(=O)C(=O)NCc2ccccc2C)c1 (configuration not stated),active: 14.6 µM,
Cc1ccc(-c2n[nH]c(=O)c3ccccc23)cc1S(=O)(=O)NC(C)(C)C,"inconclusive: 29.1 µM [activator, single point]",
O=C(N/N=C/c1ccc(O)c([N+](=O)[O-])c1)C1CC1(c1ccccc1)c1ccccc1 (configuration not stated),"inconclusive: 18.3 µM [activator, partial curve, poor fit]",
